These are yes or no findings as the source states them, for the method shown. Binding seen in cells or lysates may run through a third protein. Some binding calls cover weakened binding; strength is not graded here.

This note sets out measurements from article PMC9681887.

The assay concerns the target RIPK3 (mouse (endogenous in MEFs)), Q9QZL0. As to the kind of experiment: co-IP; necrosome from WT and SENP1-KD MEFs, immunoprecipitated with anti-RIPK3 antibodies (0.5% NP-40 lysis buffer, protein A/G agarose); immunoblot. The conditions noted are these: remark: other sources report otherwise. A general note: A western blot detects proteins with antibodies after separation by electrophoresis.

B1: RIPK1, Q60855 1-656 (protein)
chain: MQPDMSLDNIKMASSDLLEKTDLDSGGFGKVSLCYHRSHGFVILKKVYTGPNRAEYNEVLLEEGKMMHRLRHSRVVKLLGIIIEEGNYSLVMEYMEKGNLMHVLKTQIDVPLSLKGRIIVEAIEGMCYLHDKGVIHKDLKPENILVDRDFHIKIADLGVASFKTWSKLTKEKDNKQKEVSSTTKKNNGGTLYYMAPEHLNDINAKPTEKSDVYSFGIVLWAIFAKKEPYENVICTEQFVICIKSGNRPNVEEILEYCPREIISLMERCWQAIPEDRPTFLGIEEEFRPFYLSHFEEYVEEDVASLKKEYPDQSPVLQRMFSLQHDCVPLPPSRSNSEQPGSLHSSQGLQMGPVEESWFSSSPEYPQDENDRSVQAKLQEEASYHAFGIFAEKQTKPQPRQNEAYNREEERKRRVSHDPFAQQRARENIKSAGARGHSDPSTTSRGIAVQQLSWPATQTVWNNGLYNQHGFGTTGTGVWYPPNLSQMYSTYKTPVPETNIPGSTPTMPYFSGPVADDLIKYTIFNSSGIQIGNHNYMDVGLNSQPPNNTCKEESTSRHQAIFDNTTSLTDEHLNPIRENLGRQWKNCARKLGFTESQIDEIDHDYERDGLKEKVYQMLQKWLMREGTKGATVGKLAQALHQCCRIDLLNHLIRASQS
Turning to B1, the binding entry is reported as “binds”.
